AC50 and cell number change data for 56 molecules are collected here from PubChem BioAssay AID2685 (National Center for Advancing Translational Sciences (NCATS), 2010).

The list shows a part of the results. Further columns of the screen follow, without active or inactive calls. The list favours compounds with an active or inconclusive main result. Potencies come from curve fits of mixed quality, noted in brackets. Where a SMILES comes first, the peptide text is derived from it. [ ]: non-standard residue; d: D form. The star is where a group is joined. ξ: configuration not given here. Cbz = O=C(OCc1ccccc1)*; ξP = O=C(O)C1CCCN1

The nature of the assay: qHTS Assay for Lipid Storage Modulators in Drosophila S3 Cells.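 On cell number change: cells counted by Cell Tracker Red CMTPX staining in the red channel.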 The following applies: BODIPY lipid droplet fluorescence, 18-24 h; for cell number change: measured here: cell count max response, cells fed with added oleic acid. The essentials:
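Drosophila S3 cells got compounds at several concentrations plus oleic acid (400 uM solution). Laser-scanning cytometry with 488 nm excitation read lipid droplets at 500-530 nm and cells at 575-640 nm. Percent activity was relative to 20 uM Triacsin C.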
In general terms: Quantitative high-throughput screening tests each substance at several concentrations.

Setting [1] is: measured here: lipid fluorescence (Fed channel) AC50, cells fed with added oleic acid.
The mark [2] stands for this setting: measured here: cell number channel AC50, cells fed with added oleic acid.

A word on the AC50: it is the concentration at which the activity in the assay is half-maximal. A low value points to activity at low concentration. Consider `Cc1cc(=O)oc2cc(OCC(=O)N3CCN(c4ccc(F)cc4)CC3)ccc12`, for which the AC50 under setting [1] was 29.1 µM [falling, single point].
In the case of `CSc1ccccc1NC(=O)Nc1cccc(Cl)c1Cl`, the cell number change came to 45.2%. Further, the AC50 under setting [2] was 13 µM [rising, partial curve]. Under setting [1], the AC50 was 29.1 µM [rising, single point].
As to `COC(=O)[C@@]12CCCN1[C@H](c1ccc(-c3ccc4c(c3)OCO4)c(OC)c1)[C@H]1C(=O)N(C)C(=O)[C@H]12`, the cell number change was -28.6%.
Turning to `NC(=O)CC(NC(=O)Cc1cccc2ccccc12)c1ccc(NCCCN2CCCC2=O)c([N+](=O)[O-])c1` (centres undefined), the cell number change is 8.98%. Besides, the AC50 under setting [1] was 10.3 µM [rising, partial curve].
On to `CCN(C(=O)CSc1nc2ccccc2c(=O)n1Cc1ccc(C)cc1)C1CCS(=O)(=O)C1` (centres undefined), for which, under setting [1], the AC50 is 0.231 µM [rising, full curve].
On to `O=C(CCC(=O)N1CCSc2ccccc21)Nc1cccc(F)c1`, for which the cell number change was determined as 15.3%.
For the molecule `Cc1nn(CC(=O)O)c(C)c1N`, the cell number change is -17%. The AC50 under setting [1] is 0.206 µM [falling, full curve].
As for `NC(=O)CC(NC(=O)Cc1cccc2ccccc12)c1ccc(N2CCCCCCC2)c([N+](=O)[O-])c1` (centres undefined), the cell number change is -38.5%. The AC50 under setting [2] is 29.1 µM [falling, single point]. Moreover, under setting [1], the AC50 is 29.1 µM [falling, partial curve, poor fit].
Take `O=C(COC(=O)C1(c2ccccc2)CC1)N1CCN(c2ccc(F)cc2)CC1`: the cell number change was 9.64%. Besides, under setting [2], the AC50 was 0.411 µM [falling, partial curve, poor fit]. The AC50 under setting [1] is 29.1 µM [rising, single point].
Take `CC(C)COCC(CN(Cc1ccccc1)c1ccccc1)N1CCCC1` (centres undefined): the cell number change is -50.9%. Moreover, the AC50 under setting [2] is 18.4 µM [falling, single point]. Further, the AC50 under setting [1] was 1.46 µM [falling, partial curve].
With `Cc1cc(=O)oc2cc3oc(=O)cc(C)c3cc12`, the cell number change is -15%. For the same molecule, the AC50 under setting [1] was 16.4 µM [falling, partial curve].
On to `Oc1ccccc1N1CCN(c2ncccn2)CC1`, for which the cell number change was 2.3%.
Take `Cc1ccc2c(c1)N(Cc1cccc(C#N)c1)C=NS2(=O)=O`: the cell number change came to 38.7%. Moreover, the concentration at half-maximal activity (AC50) under setting [2] is 0.92 µM [rising, full curve, poor fit]. Besides, the AC50 under setting [1] is 18.4 µM [rising, partial curve].
`COc1ccc(C(CNC(=O)c2cccc(S(=O)(=O)Nc3ccc(F)cc3)c2)N(C)C)cc1` (centres undefined): under setting [1], the AC50 was 20.6 µM [falling, partial curve].
For the molecule `Cc1cc(C)cc(NC(=O)CSc2cc(C(=O)c3nccn3C)c3ccccc3n2)c1`, the cell number change is 6.27%.
With `N=c1n(CCN2CCOCC2)c2ccccc2n1CC(=O)c1ccc(Cl)c(Cl)c1`, the cell number change is -55.1%. Besides, under setting [2], the AC50 was 0.651 µM [falling, partial curve, poor fit]. The AC50 under setting [1] is 0.00461 µM [falling, full curve].
`COC(=O)c1cccc(C(=O)N2CCCC(C(=O)c3cccc(OC(C)C)c3)C2)c1` (centres undefined): the cell number change is 37.3%. The AC50 under setting [2] was 29.1 µM [rising, single point]. The AC50 under setting [1] was 29.1 µM [falling, partial curve, poor fit].
Regarding `CC(C)(C)OC(=O)[C@H](Cc1ccccc1)NC(=O)c1[nH]cnc1C(=O)Nc1cccc(Cl)c1`, the cell number change is -24.5%. Further, the AC50 under setting [1] is 29.1 µM [falling, single point].
Turning to `O=C(NCCCCc1ccccc1)c1ccc(Br)o1`, the cell number change was -29.7%. Also, the AC50 under setting [2] is 2.06 µM [falling, full curve, poor fit]. In addition, the AC50 under setting [1] is 3.66 µM [falling, partial curve].
`O=C(Nc1ccc(Cc2ccncc2)cc1)C1CCC(N2C(=O)C3CCCCC3C2=O)CC1` (centres undefined): the cell number change was -32.2%. The AC50 under setting [2] was 29.1 µM [falling, single point]. The AC50 under setting [1] is 18.4 µM [falling, single point].
As to `O=C(NCCc1csc(-c2cccnc2)n1)c1ccccc1`, the AC50 runs as follows: under setting [2], 1.84 µM [rising, partial curve]; under setting [1], 1.84 µM [rising, partial curve].
As for `CCc1oc(C(=O)O)cc1CN(CC)CC`, the cell number change was -49%. Moreover, the half-maximal activity concentration (AC50) under setting [2] was 23.1 µM [falling, partial curve]. Moreover, under setting [1], the concentration at half-maximal activity (AC50) is 0.13 µM [falling, full curve, poor fit].
Turning to `CCOC(=O)C(C)Sc1nnc(-c2ccccc2O)n1Cc1ccccc1` (centres undefined), the cell number change came to 13.7%. Further, under setting [1], the AC50 was 18.4 µM [rising, single point].
As for `O=C(CCC1CCCC1)N1CCN(C2CCCC2)CC1`, the cell number change was found to be 14.5%.
`O=C(N/C(=C/c1cccnc1)C(=O)N1CCCCCC1)c1ccccc1`: the cell number change was determined as 1.9%.
Consider `Cc1csc(NC(=O)c2ccc(N3CCCC3=O)cc2)n1`, for which the cell number change was 9.52%. The AC50 under setting [2] is 6.51 µM [rising, single point].
With `CCOc1ccccc1N(C(=O)c1snc(C(N)=O)c1N)C(C(=O)NCCC(C)C)c1ccco1` (centres undefined), the cell number change was -13.4%. Moreover, the AC50 under setting [2] was 0.0058 µM [falling, full curve, poor fit]. Besides, under setting [1], the AC50 is 0.00461 µM [falling, full curve].
On to `O=C(Nc1ccc(Oc2cccnc2)nc1)c1ccc(C(F)(F)F)cc1`, for which the cell number change was -37.1%. In addition, under setting [2], the AC50 was 20.6 µM [falling, single point]. Under setting [1], the AC50 is 16.4 µM [falling, single point].
As for `Cc1ccc(-n2nc3c(=O)n(CCCC(=O)N4CCC(C)CC4)nc(C)c3c2C)cc1`, the cell number change was -53.9%. The concentration at half-maximal activity (AC50) under setting [2] is 3.66 µM [falling, single point].
As for `COc1cccc2c1OC[C@@H](CO)[C@H]2N(C)C(=O)Nc1ccc(Cl)cc1`, the cell number change stood at 9.48%. Under setting [1], the AC50 is 2.31 µM [rising, partial curve, poor fit].
On to `CCCCN=C(N)/C(C(=O)OCC)=C(\O)c1ccc(OC)cc1`, for which the cell number change is -30.8%. The AC50 under setting [2] was 8.2 µM [falling, partial curve, poor fit]. In addition, the AC50 under setting [1] was 0.103 µM [falling, full curve, poor fit].
Consider `CC1CCCN(C(=O)CN2C(=O)c3ccccc3C2=O)C1` (centres undefined), for which the cell number change is -32.5%. Besides, the AC50 under setting [2] was 5.8 µM [falling, partial curve, poor fit]. Further, under setting [1], the AC50 is 2.06 µM [falling, partial curve, poor fit].
Turning to `CC(C)(C)c1ccc(OCCCC(=O)Nc2cccc(S(=O)(=O)N3CCOCC3)c2)cc1`, the cell number change came out at 182%. The AC50 under setting [2] is 20.6 µM [rising, partial curve].
With `COc1ccccc1Cn1c(=S)[nH]c2cc(C(=O)N3CCCC3)ccc2c1=O`, the cell number change stood at 11%. Further, the AC50 under setting [1] is 8.2 µM [rising, partial curve].
Turning to `Cc1cc(C(=O)Nc2ccccc2N2CCOCC2)no1`, the cell number change is -21.4%. Further, the AC50 under setting [2] was 0.291 µM [falling, full curve]. Besides, the AC50 under setting [1] is 0.411 µM [falling, full curve, poor fit].
As for `CCCN(CC(=O)Nc1ccc(F)c(F)c1F)C(=O)C1=COCCO1`, the cell number change came to 23.3%.
Same read-out and setting: to `O=C(C1=C(O)C(=O)N(CCCN2CCOCC2)C1c1ccc(Cl)cc1)c1cc2ccccc2o1` (centres undefined) belongs -6.42%.
On to `O=C(Cn1cc(C(F)(F)F)ccc1=O)N/N=C/c1cccc(Cl)c1`, for which the cell number change is -12.6%. In addition, the AC50 under setting [2] was 0.00461 µM [rising, full curve, poor fit].
On to `NC(=O)c1cn(-c2ccccc2)nc1-c1cccnc1`, for which the cell number change was 102%. Moreover, the half-maximal activity concentration (AC50) under setting [2] is 14.6 µM [rising, partial curve].
In the case of `CS(=O)(=O)N(CC(=O)NCc1ccco1)c1ccc(Cl)cc1Cl`, the cell number change is 4.15%.
On to `O=C(Nc1cccc(-c2nc3ncccc3o2)c1)c1sc2cc(Cl)ccc2c1Cl`, for which the cell number change was found to be 0.0766%. For the same molecule, the AC50 under setting [1] is 29.1 µM [rising, single point].
Turning to `Cc1c(C(=O)N2CCOCC2)sc2nc(-c3ccccc3)cn12`, the cell number change came to 2.11%. For the same molecule, under setting [1], the AC50 was 7.31 µM [falling, partial curve, poor fit].
In the case of `O=C(O)c1occc1CSc1ccccc1`, the cell number change came to 31.5%. In addition, the AC50 under setting [2] was 0.0651 µM [rising, full curve, poor fit]. In addition, the AC50 under setting [1] is 0.58 µM [falling, single point].
As for `O=C(CO)N/N=C/c1c2ccccc2cc2ccccc12`, the cell number change worked out at 81.2%. In addition, the AC50 under setting [2] is 29.1 µM [rising, single point].
Consider `C=CCn1c(C)cc(C(=O)COC(=O)c2ccc3c(c2)NC(=O)CS3)c1C`, for which the cell number change turned out to be 44.3%. Further, the AC50 under setting [2] was 25.9 µM [rising, single point].
With `CC[C@H](C)NC(=O)c1ccc(Cn2c(=S)[nH]c3c([nH]c4ccc(OC)cc43)c2=O)cc1`, the cell number change was -12.5%. Under setting [1], the AC50 was 29.1 µM [falling, single point].
Regarding `O=C(O)CNC(=O)C1CCCN1C(=O)CNC(=O)OCc1ccccc1` (stereo not drawn) (Cbz-Gly-[ξP]-Gly-OH), the AC50 under setting [1] was 6.51 µM [falling, single point].
Consider `CC(OC(=O)C1CC1)C(=O)Nc1ccc([N+](=O)[O-])cc1Cl` (centres undefined), for which the cell number change is 14.3%.
As for `O=C(Nc1ccc(NC(=O)c2ccco2)c(Cl)c1)c1cccc([N+](=O)[O-])c1`, the cell number change was found to be 20.8%.
Regarding `CC(=O)NCCn1c(SCc2ccc(C)cc2C)nc2ccccc2c1=O`, the cell number change is 87.7%. The AC50 under setting [2] was 3.26 µM [rising, full curve].
`Cc1cc(C(=O)N(C)CC(=O)Nc2ccccc2C(F)(F)F)c(C)o1`: the cell number change amounted to 13.9%. For the same molecule, under setting [1], the AC50 was 0.0326 µM [rising, full curve, poor fit].
As for `CN(CC1CCCO1)S(=O)(=O)c1ccc(C(=O)Nc2nc(-c3ccccn3)cs2)cc1` (centres undefined), the cell number change is -18.5%. For the same molecule, the AC50 under setting [1] was 29.1 µM [falling, single point].
As to `N#C/C(=C\c1ccc(O)cc1)c1nc2ccccc2o1`, the cell number change was -40.2%. Further, under setting [2], the AC50 is 16.4 µM [falling, single point]. In addition, under setting [1], the AC50 was 29.1 µM [falling, single point].
As to `O=C(COC(=O)c1c(F)cccc1F)NCCNC(=O)COC(=O)c1c(F)cccc1F`, the cell number change was 1.25%. Besides, the AC50 under setting [1] was 11.6 µM [falling, partial curve, poor fit].
As for `Clc1ccc(-c2ccnc(-n3cccc3)n2)s1`, the AC50 under setting [1] is 20.6 µM [rising, partial curve].
In the case of `O=S(Cc1ccc(Br)cc1)Cc1nnc(SCc2c(Cl)cccc2Cl)n1-c1ccccc1` (centres undefined), the cell number change is -88.6%. Further, under setting [2], the AC50 was 29.1 µM [falling, single point]. Moreover, under setting [1], the concentration at half-maximal activity (AC50) is 29.1 µM [falling, single point].
